Results are given in words; binding and its absence hold for the method and conditions named. Some binding calls cover weakened binding; strength is not graded here.
Tests used:
[1] = target: human properdin deletion mutant dTSR0 (human) (UniProt P27918); assay: ELISA with CHO cell lysates of properdin deletion mutants (FIG. 6)
human properdin (human) = human properdin (human) (UniProt P27918); assay: ELISA of culture medium of transfected CHO clones on human properdin

Sequences of proteins named here, by UniProt entry; tags and fusion partners are left off. A change or cut given only in a name is not applied to a line headed by its entry.
UniProt P27918: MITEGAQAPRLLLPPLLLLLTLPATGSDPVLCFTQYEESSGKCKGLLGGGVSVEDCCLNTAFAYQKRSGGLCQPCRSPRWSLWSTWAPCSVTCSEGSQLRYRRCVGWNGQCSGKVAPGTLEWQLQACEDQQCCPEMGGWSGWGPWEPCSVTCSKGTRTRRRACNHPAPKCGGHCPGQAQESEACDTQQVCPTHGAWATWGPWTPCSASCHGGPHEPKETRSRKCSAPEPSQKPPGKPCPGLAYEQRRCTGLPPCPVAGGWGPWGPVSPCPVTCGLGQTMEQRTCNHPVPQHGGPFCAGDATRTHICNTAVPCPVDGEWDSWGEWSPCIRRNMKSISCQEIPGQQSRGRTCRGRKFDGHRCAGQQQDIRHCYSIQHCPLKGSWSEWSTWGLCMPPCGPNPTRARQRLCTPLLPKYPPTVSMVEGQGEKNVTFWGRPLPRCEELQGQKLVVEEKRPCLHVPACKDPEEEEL

Row | binding [1] | binding (human properdin (human)) | Binder
1 | binds |  | mAb 25 (antibody, V domains shown) VH: QVQLLQSGAEVMKPGASVTLSCKAIGYTFIDYWIEWIKQRPGHGLEWIGEIFPGSGTINHNEKFKDKASFSAHSSSNTAYMQLSRLTSEDSAIYYCAREGLDYWGQGTTLTVSS VL: QIVLTQSPAIMSASPGERVTMTCSASSSVSYIYWYQQKSGTSPKRWIFDTSTLASGVPTRFSGSGSGTSYSLTISSMETEDAATYYCQQWSRNPFTFGSGTKLEIK
2 | binds |  | mAb 19.1 (antibody, V domains shown) VH: QVQLKQSGPGLVQPSQSLSISCTVSGFSLTTYGVHWVRQSPGKGLEWLGVIWSGGDTDYNASFISRLRINKDTSKSQVFFKMNSLQADDTAYYCARNKDYYTNYDFTMDYWGQGTSVTVSS VL: NIMMTQSPSSLAVSAGEKVTMSCKSSQSVLYSSNQKNFLAWYQQKPGQSPKLLIYWASTRESGVPDRFTGSGSGTDFILTINSVQVEDQAVYYCHQYLSSYTFGGGTKLEIK
3 |  | binds | chimeric 19.1 mAb (antibody, human IgG4 S228P, kappa, V domains shown) VH: QVQLKQSGPGLVQPSQSLSISCTVSGFSLTTYGVHWVRQSPGKGLEWLGVIWSGGDTDYNASFISRLRINKDTSKSQVFFKMNSLQADDTAYYCARNKDYYTNYDFTMDYWGQGTSVTVSS VL: NIMMTQSPSSLAVSAGEKVTMSCKSSQSVLYSSNQKNFLAWYQQKPGQSPKLLIYWASTRESGVPDRFTGSGSGTDFILTINSVQVEDQAVYYCHQYLSSYTFGGGTKLEIKT

Reference: patent publication US20140212427A1
